No constants are given. Whether binding was seen depends on the method and setting. In cells and extracts the contact can be indirect. These calls come from enrichment with a bait or labelling near it, and not all partners need be listed.

Protein sequences, listed by entry. Tags and fused reporters are not part of them.
UniProt O15027: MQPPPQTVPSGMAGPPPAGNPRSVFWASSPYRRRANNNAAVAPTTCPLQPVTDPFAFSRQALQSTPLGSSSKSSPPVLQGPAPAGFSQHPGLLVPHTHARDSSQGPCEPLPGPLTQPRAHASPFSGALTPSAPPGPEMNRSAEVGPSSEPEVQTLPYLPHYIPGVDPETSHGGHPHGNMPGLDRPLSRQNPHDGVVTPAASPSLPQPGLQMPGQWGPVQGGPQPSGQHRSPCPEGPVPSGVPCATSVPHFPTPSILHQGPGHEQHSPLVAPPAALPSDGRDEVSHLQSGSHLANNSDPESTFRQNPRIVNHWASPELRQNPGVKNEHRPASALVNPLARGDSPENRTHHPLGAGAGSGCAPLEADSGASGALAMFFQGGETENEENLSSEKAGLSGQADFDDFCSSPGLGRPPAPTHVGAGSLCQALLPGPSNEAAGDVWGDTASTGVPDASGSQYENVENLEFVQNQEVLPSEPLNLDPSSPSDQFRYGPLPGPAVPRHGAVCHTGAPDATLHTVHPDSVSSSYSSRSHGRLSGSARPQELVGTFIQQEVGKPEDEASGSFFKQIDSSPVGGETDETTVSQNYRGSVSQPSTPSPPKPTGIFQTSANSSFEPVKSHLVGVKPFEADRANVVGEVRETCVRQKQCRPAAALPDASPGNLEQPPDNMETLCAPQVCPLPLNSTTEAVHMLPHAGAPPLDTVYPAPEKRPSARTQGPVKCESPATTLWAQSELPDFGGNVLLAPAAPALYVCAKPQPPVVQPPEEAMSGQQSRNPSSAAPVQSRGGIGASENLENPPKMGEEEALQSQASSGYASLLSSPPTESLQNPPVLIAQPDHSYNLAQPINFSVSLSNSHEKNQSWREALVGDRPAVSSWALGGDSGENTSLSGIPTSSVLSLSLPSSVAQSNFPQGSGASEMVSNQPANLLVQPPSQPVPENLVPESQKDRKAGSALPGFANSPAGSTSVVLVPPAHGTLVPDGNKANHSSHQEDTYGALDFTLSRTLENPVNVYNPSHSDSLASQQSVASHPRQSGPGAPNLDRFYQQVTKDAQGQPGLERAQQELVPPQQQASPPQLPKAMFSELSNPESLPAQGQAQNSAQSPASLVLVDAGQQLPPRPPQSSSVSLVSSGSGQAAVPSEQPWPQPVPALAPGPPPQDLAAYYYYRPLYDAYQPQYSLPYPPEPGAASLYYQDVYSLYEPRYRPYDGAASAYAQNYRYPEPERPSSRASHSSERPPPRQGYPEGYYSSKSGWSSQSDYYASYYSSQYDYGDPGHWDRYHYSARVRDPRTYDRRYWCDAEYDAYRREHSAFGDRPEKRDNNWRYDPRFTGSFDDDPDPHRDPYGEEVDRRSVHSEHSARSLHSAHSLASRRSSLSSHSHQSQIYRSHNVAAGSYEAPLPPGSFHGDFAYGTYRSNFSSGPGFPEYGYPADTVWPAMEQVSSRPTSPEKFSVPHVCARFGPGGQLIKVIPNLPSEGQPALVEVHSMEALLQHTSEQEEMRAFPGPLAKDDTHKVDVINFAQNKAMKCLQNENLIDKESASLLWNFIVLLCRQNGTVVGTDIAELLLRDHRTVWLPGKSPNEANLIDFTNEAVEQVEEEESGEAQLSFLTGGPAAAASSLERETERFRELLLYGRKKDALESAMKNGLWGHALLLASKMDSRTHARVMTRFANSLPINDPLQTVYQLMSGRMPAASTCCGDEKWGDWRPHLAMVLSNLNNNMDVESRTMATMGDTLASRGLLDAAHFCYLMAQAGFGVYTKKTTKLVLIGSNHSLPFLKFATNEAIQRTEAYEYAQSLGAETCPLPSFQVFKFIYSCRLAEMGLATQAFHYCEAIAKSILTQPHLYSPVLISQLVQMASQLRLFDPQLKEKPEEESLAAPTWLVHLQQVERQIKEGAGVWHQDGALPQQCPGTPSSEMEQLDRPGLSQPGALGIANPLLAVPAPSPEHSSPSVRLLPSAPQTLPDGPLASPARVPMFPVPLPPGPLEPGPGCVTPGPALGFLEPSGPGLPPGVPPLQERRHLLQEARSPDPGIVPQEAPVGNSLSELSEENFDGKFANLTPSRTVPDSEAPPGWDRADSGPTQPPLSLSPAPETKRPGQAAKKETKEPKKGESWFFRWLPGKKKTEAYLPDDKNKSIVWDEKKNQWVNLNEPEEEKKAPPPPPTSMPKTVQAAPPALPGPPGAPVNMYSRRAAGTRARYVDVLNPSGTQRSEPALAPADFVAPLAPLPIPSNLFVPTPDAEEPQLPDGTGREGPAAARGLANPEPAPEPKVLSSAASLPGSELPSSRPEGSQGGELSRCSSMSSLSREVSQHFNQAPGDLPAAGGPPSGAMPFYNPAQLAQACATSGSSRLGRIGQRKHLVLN
UniProt Q15436: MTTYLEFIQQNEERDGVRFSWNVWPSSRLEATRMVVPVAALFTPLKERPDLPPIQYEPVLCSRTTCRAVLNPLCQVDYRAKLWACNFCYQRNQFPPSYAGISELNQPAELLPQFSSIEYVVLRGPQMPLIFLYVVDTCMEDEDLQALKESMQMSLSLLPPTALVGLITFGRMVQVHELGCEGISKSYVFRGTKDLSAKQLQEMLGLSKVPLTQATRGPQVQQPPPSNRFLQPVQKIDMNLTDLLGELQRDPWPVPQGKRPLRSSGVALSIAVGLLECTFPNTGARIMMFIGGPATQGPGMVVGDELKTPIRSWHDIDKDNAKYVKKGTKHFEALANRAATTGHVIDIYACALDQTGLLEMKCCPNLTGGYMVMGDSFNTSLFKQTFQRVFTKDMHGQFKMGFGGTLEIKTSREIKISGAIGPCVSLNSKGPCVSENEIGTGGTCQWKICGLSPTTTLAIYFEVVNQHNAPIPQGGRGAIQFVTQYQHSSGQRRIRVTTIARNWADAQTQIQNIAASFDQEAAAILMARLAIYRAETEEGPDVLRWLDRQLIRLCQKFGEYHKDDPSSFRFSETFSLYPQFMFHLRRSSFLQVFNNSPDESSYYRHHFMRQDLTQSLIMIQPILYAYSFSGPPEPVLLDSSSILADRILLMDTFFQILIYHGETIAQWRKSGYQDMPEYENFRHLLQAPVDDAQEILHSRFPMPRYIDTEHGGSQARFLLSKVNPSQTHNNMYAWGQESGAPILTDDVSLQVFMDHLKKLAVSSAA

Data on one substance can be found in paper doi:10.1101/2025.06.18.660491.

This assay concerns the target endogenous full-length Sec16 (human (endogenous in HeLa)) (UniProt O15027). Briefly: affinity purification with mass spectrometry.

On to Sec23A (from UniProt Q15436 1-765), for which the binding entry is listed as “binds”.
